Reference: PubChem BioAssay AID651804 (National Center for Advancing Translational Sciences (NCATS), 2012)
Among all 1,200 compounds or so, about 20 (2%) were called active. Inconclusive results (about 23%) are left out. Calls follow the shape of the dose curve; as a rule, active = well fitted inhibition curve with a large enough effect; inconclusive = small, poorly fitted or top-dose-only effect; inactive = no such curve, though single readings can be large or run the other way. The list shows a part of the results.
Potency is read from the fitted curve at half-maximal effect.

Sequences of proteins named here, by UniProt entry; tags and fusion partners are left off. A change or cut given only in a name is not applied to a line headed by its entry.
UniProt P11308: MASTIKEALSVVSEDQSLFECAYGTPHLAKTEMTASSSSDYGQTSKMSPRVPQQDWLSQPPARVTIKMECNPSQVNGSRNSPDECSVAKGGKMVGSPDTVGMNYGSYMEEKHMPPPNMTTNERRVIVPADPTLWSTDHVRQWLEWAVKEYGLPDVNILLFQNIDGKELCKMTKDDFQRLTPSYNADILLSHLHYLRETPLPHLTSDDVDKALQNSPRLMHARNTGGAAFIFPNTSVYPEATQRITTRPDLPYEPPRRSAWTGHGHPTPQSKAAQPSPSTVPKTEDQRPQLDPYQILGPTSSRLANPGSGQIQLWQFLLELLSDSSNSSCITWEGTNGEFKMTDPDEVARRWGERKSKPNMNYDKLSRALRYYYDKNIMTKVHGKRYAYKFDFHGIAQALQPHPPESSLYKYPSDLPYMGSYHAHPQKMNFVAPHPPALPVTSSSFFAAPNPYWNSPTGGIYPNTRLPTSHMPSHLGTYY

Each compound was assayed against Transcriptional regulator ERG (Homo sapiens) (UniProt P11308) (assay: qHTS for Small Molecule Inhibitors of the ERG Ets/DNA interaction: HTRF assay against cherry picks). Conditions: His-ERG Ets domain with biotin-DNA; series mostly up to 154 µM; activity change, negative = inhibition: at the top concentration.
Outline: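 HTRF of His-tagged ERG Ets domain (200 nM solution) with biotin-DNA (200 nM solution) in 300mM KCl, 50mM Tris-HCl pH 7.5, 1mM EDTA, 1mM DTT; 10 min RT. Anti-His cryptate donor plus streptavidin acceptor added, 10 min, FRET read at 615/665 nm.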
O=C(NC1CCCCCC1)c1ccc(-n2cnnc2)cc1 was tested, and the “activity change, negative = inhibition” value was inactive: -14.3%. COc1ccc(-c2noc(Cn3c(=O)c4ccccc4n(CC(=O)Nc4cccc(C(F)(F)F)c4)c3=O)n2)cc1 was tested, and the “activity change, negative = inhibition” value was inactive: -14.5%. For NC12CC3CC(CC(C3)C1)C2, the “activity change, negative = inhibition” value was inactive: -5.2%. O=C(NCCN1CCCC1)c1ccc2c(c1)N(Cc1cccc(Cl)c1)C(=O)c1ccccc1S2(=O)=O was tested, and the “activity change, negative = inhibition” value was inactive: -7.32%. COc1cccc(N=C2CC(C)(C)CC(=O)/C2=C(/O)c2ccccc2)c1 was tested, and the “activity change, negative = inhibition” value was inactive: -30%. With COc1ccc(C(=O)NCC(=O)N/N=C/c2cccnc2)cc1 the “activity change, negative = inhibition” value was inactive: -28.6%. For CC(C)CCN1CCN(C2CCN(c3ccc4c(c3)OCO4)CC2)CC1CCO (centres undefined), the “activity change, negative = inhibition” value was inactive: -10.5%. With COc1ccc(OCC(=O)OCc2cc(=O)n3nc(-c4cccs4)sc3n2)cc1 the “activity change, negative = inhibition” value was inactive: 52.7%. Cc1ccc2c(C)c(C(=O)N(C)C(C)c3ccon3)oc2c1C (centres undefined) was tested, and the “activity change, negative = inhibition” value was inactive: 15.3%. With CC1CCCCC1NC(=O)/C(C#N)=C/c1ccc(OCC(N)=O)cc1 (centres undefined) the “activity change, negative = inhibition” value was inactive: -20.1%. For Cc1cccn2c(=O)cc(COc3ccc(NC(=O)C(C)C)cc3)nc12, the “activity change, negative = inhibition” value was inactive: -16.7%. With Cc1cc(OCc2nnc(SC(C)C(=O)O)n2-c2ccccc2)ccc1Cl (centres undefined) the “activity change, negative = inhibition” value was inactive: -4.46%. For COc1ccccc1NS(=O)(=O)c1ccc(C)c(NC(=O)c2c(C)noc2C)c1, the “activity change, negative = inhibition” value was inactive: -24.5%. With COC(=O)c1c(C(=O)OC)c(-c2ccc(C(C)(C)C)cc2)n2c1CS(=O)C2 (centres undefined) the “activity change, negative = inhibition” value was inactive: -24.7%. In the case of Nc1ccc2nc(SCC(=O)N3CCOCC3)sc2c1, the “activity change, negative = inhibition” value is reported as inactive: -9.55%. Cc1cccc(C)c1-n1cccc1/C=C1/C(=N)N2C(=NC1=O)SN=C2S(C)(=O)=O was tested, and the “activity change, negative = inhibition” value was inactive: -25.3%. With CCN(CC)C(=O)Cn1cc(C(=O)C(=O)NCCCN2CCOCC2)c2ccccc21 the “activity change, negative = inhibition” value was inactive: -32.6%. In the case of CS(=O)(=O)N(Cc1ccccc1)c1ccc(C(=O)Nc2ccc(Cl)cc2)cc1, the “activity change, negative = inhibition” value is reported as inactive: -18.8%. In the case of CCCCn1c(N)c(N(CC(C)C)C(=O)c2ccc(S(=O)(=O)N(CC)c3ccccc3)cc2)c(=O)[nH]c1=O, the “activity change, negative = inhibition” value is reported as inactive: -7.53%. COc1ccc(-c2nc3c(c4nnc(SC(C)C(=O)Nc5ccc(C)cc5)n24)COC(C)(C)C3)cc1 (centres undefined) was tested, and the “activity change, negative = inhibition” value was inactive: 6.21%. O=C(/C=C/c1ccc([N+](=O)[O-])cc1)NCc1ccco1 was tested, and the Potency was active: 28.2 µM. With Cc1ccc2nc3c(c(N)c2c1)CCN3C the “activity change, negative = inhibition” value was inactive: -20.7%. For COc1ccc(NC(C)c2ccccc2)cc1 (centres undefined), the “activity change, negative = inhibition” value was inactive: -15.4%. Oc1ccccc1/C=N/n1c(COc2ccccc2)n[nH]c1=S was tested, and the “activity change, negative = inhibition” value was inactive: -9.39%. In the case of Cc1ccc(S(=O)(=O)N2CCCCC2)cc1NC(=O)C1CC(=O)N(c2ccc3c(c2)OCCO3)C1 (centres undefined), the “activity change, negative = inhibition” value is reported as inactive: -5.57%. With COc1ccc(C(C)(C)C)cc1NC(=O)C1=CC=CN2CCS(=O)(=O)N=C12 the “activity change, negative = inhibition” value was inactive: -15.7%. With CCOC(=O)N1CCC(NC(=O)CSCc2nc(-c3ccc(OCC)cc3)oc2C)CC1 the “activity change, negative = inhibition” value was inactive: -0.69%. For CCCCN(CC)C(=O)CSc1nc2n[nH]c(C)c2c(=N)n1-c1cccc(C)c1, the “activity change, negative = inhibition” value was inactive: -20.4%. With O=C(NCc1ccc2c(c1)OCO2)NC1CCCCC1 the “activity change, negative = inhibition” value was inactive: -7.16%. COc1ccc(OCC(=O)NNC(=O)C2CCN(c3ncnc4sc(C)c(C)c34)CC2)cc1 was tested, and the “activity change, negative = inhibition” value was inactive: 1.96%. COc1ccc(NC(=O)C(C)(C)Oc2ccc(Cl)cc2)cn1 was tested, and the “activity change, negative = inhibition” value was inactive: -36.2%. In the case of COc1ccc(CCNc2oc(-c3cccc4ccccc34)nc2P(=O)(OC)OC)cc1OC, the “activity change, negative = inhibition” value is reported as inactive: -11.9%. In the case of CCC(=O)N1CCN(c2nc3ccc(Br)cc3s2)CC1, the “activity change, negative = inhibition” value is reported as inactive: -20.5%. For O=C(Nc1ccc(N2CCN(C(=O)c3cccs3)CC2)cc1)c1ccccc1Cl, the “activity change, negative = inhibition” value was inactive: 10%. With COc1cc(NCCCC(C)N)c2ncccc2c1 (centres undefined) the Potency was active: 44.7 µM. In the case of Cc1cccn2c(=O)c3cc(C#N)c(=NC(=O)c4ccccc4)n(Cc4ccco4)c3nc12, the “activity change, negative = inhibition” value is reported as inactive: 22.6%. CCOC(=O)c1c(NC(=O)C(C)Sc2cn(CCNC(=O)c3ccc(OC)c(OC)c3)c3ccccc23)sc2c1CCC2 (centres undefined) was tested, and the “activity change, negative = inhibition” value was inactive: -17.7%. With O=C(Nc1ccc(-c2nc3ccccc3[nH]2)cc1)c1c(F)c(F)c(F)c(F)c1F the “activity change, negative = inhibition” value was inactive: -17.1%. In the case of O=S(=O)(NCCC1=CCCCC1)c1ccc(OC(F)(F)F)cc1, the “activity change, negative = inhibition” value is reported as inactive: -7.37%. For CCC1COC(c2cccn2Cc2ccc(Cl)cc2)=N1 (centres undefined), the “activity change, negative = inhibition” value was inactive: 7.96%. For O=C(NC1CCCC1)C1CCC(CNS(=O)(=O)c2cccs2)CC1 (centres undefined), the “activity change, negative = inhibition” value was inactive: -17.6%. With O=C(CN1C(=O)COc2ccc(S(=O)(=O)N3CCCCCC3)cc21)N1CCN(c2ccccc2F)CC1 the “activity change, negative = inhibition” value was inactive: -18.7%. In the case of C#C[C@]1(O)CCC2C3CCC4=CC(=O)CC[C@@H]4C3CC[C@@]21C (some centres undefined), the “activity change, negative = inhibition” value is reported as inactive: -23.4%. In the case of C/C(=N/OCO/N=C(\C)c1ccccc1)c1ccccc1, the “activity change, negative = inhibition” value is reported as inactive: -23%. For O=C(Nc1cc2c(cc1Cl)-c1ccc([N+](=O)[O-])cc1C2=NO)C(F)(F)F, the “activity change, negative = inhibition” value was inactive: -54.7%. In the case of O=C(OCC(=O)c1ccc(Cl)cc1Cl)c1cnccn1, the “activity change, negative = inhibition” value is reported as inactive: -4.24%. For OC(c1cc(C(F)(F)F)nc2c(Cl)cc(Cl)cc12)C1CCCCN1 (centres undefined), the “activity change, negative = inhibition” value was inactive: -41.6%. In the case of Cc1c(OCC(=O)NCC2CCC(C(=O)NCCCO)CC2)ccc2c(-c3ccccc3)cc(=O)oc12 (centres undefined), the “activity change, negative = inhibition” value is reported as inactive: -39.8%. With CCc1ccc(S(=O)(=O)NC2CC(C)(C)NC(C)(C)C2)cc1 the “activity change, negative = inhibition” value was inactive: -22.9%. COc1ccccc1NC(=O)N1CCN(C(=O)Nc2ccccc2OC)CC1 was tested, and the “activity change, negative = inhibition” value was inactive: -25.8%. In the case of C=C(C)[C@@H]1CC=C(C(=O)O)CC1, the “activity change, negative = inhibition” value is reported as inactive: 0.796%. For COc1ccc(NC(=O)CSc2nc(C)c3c(c2C#N)CCCC3)cc1, the “activity change, negative = inhibition” value was inactive: -22.1%. For O=C(Nc1ccncc1)c1cn(-c2ccccc2)nc1-c1cccs1, the “activity change, negative = inhibition” value was inactive: 17.1%. In the case of Cc1ccc(Cl)cc1NC(=O)c1oc2ccc(S(=O)(=O)N(C)C3CCCCC3)cc2c1C, the “activity change, negative = inhibition” value is reported as inactive: 6.1%.
